We go through two substances from article PMC6377630, “NapM enhances the survival of Mycobacterium tuberculosis under stress and in macrophages” (Communications Biology, 2019).

Chains of the proteins cited; added tags and fusions are not shown. Lines headed by an entry give the natural chain unless they say otherwise; changes in a name come on top.
UniProt P71704: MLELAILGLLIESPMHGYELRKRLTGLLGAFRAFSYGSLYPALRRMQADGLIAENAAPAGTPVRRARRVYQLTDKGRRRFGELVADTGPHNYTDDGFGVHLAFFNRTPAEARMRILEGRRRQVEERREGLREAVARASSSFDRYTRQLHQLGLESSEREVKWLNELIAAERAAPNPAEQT

No constants are given. Whether binding was seen depends on the method and setting. Binding calls can cover weak binding; strength is not graded here. Where a sequence is shown, tags or fusion partners need not be part of it.

The experiment concerns the target T1, DnaA, bacterial two-hybrid fusion (M. tuberculosis) (UniProt P9WNW3).
T1 sequence: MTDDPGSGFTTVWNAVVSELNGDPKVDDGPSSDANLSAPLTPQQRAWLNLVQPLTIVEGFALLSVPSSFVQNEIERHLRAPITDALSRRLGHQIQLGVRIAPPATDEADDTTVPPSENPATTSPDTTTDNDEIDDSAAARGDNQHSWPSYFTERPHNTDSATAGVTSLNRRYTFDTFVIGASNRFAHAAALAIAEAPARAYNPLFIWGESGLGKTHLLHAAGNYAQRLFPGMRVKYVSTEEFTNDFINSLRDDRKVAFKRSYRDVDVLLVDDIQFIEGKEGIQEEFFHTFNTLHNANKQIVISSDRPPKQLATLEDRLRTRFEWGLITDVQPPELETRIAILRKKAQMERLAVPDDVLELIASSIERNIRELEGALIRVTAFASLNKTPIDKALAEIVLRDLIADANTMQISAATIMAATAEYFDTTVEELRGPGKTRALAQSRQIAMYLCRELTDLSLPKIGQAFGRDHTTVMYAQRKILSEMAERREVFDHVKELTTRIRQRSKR
In words: two-hybrid.

As for “NapM C-terminal domain (CTD), bacterial two-hybrid fusion (M. tuberculosis) (domain or fragment)”, the binding result is given as “binds”.
With “NapM, bacterial two-hybrid fusion (from UniProt P71704)” the entry was “binds”.
